# Measurements published in PMC11589570, “Critical assessment of LC3/GABARAP ligands used for degrader development and ligandability of LC3/GABARAP binding pockets” (Nature Communications, 2024).
# Values joined by “and” are separate entries in the source; they are usually repeats but may differ in a detail not shown here. Equal values may be shown once. The source gives many values for each of these; only a part stands here.
# System: RPE1 cells
# Assay: Cell growth assay (IncuCyte confluence over 72 h)
# Type: cell-based
# In short: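 Phase confluence (% area covered by cells) imaged every 2 h for 72 h after compound addition; cells in DMEM/10% FBS, seeded 24 h before treatment. Controls were 0.1% DMSO, 250 nM Torin1 and 200 ng/mL Bafilomycin (final). Each point averages three wells.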
smiles,measurement,setting,value
Cc1ccc(C)c(S(=O)(=O)Nc2cc(SCC(=O)O)c(O)c3ccccc23)c1 [compound 8],RPE1 cell growth,"3 uM, 18 h, listed as KT1",35 and 48 and 34
same,RPE1 cell growth,"3 uM, 20 h, listed as KT1",38 and 52 and 36
same,RPE1 cell growth,"3 uM, 22 h, listed as KT1",39 and 54 and 37
same,RPE1 cell growth,"3 uM, 24 h, listed as KT1",42 and 58 and 39
same,RPE1 cell growth,"3 uM, 26 h, listed as KT1",46 and 63 and 43
same,RPE1 cell growth,"3 uM, 28 h, listed as KT1",47 and 68
same,RPE1 cell growth,"3 uM, 30 h, listed as KT1",50 and 73
same,RPE1 cell growth,"3 uM, 32 h, listed as KT1",55 and 77 and 56
same,RPE1 cell growth,"3 uM, 34 h, listed as KT1",60 and 81 and 59
same,RPE1 cell growth,"3 uM, 36 h, listed as KT1",64 and 84 and 62
same,RPE1 cell growth,"3 uM, 38 h, listed as KT1",67 and 88
same,RPE1 cell growth,"3 uM, 40 h, listed as KT1",72 and 91 and 71
same,RPE1 cell growth,"3 uM, 42 h, listed as KT1",76 and 94 and 75
same,RPE1 cell growth,"3 uM, 44 h, listed as KT1",80 and 96 and 79
same,RPE1 cell growth,"3 uM, 46 h, listed as KT1",83 and 98
same,RPE1 cell growth,"3 uM, 48 h, listed as KT1",87 and 99
same,RPE1 cell growth,"3 uM, 50 h, listed as KT1",91 and 99 and 90
same,RPE1 cell growth,"3 uM, 52 h, listed as KT1",94 and 100
same,RPE1 cell growth,"3 uM, 54 h, listed as KT1",96 and 100 and 97
same,RPE1 cell growth,"3 uM, 56 h, listed as KT1",97 and 100 and 98
same,RPE1 cell growth,"3 uM, 58 h, listed as KT1",98 and 100 and 99
same,RPE1 cell growth,"3 uM, 60 h, listed as KT1",99 and 100
same,RPE1 cell growth,"3 uM, 62 h, listed as KT1",99 and 100
same,RPE1 cell growth,"3 uM, 64 h",100
same,RPE1 cell growth,"3 uM, 66 h",100
same,RPE1 cell growth,"3 uM, 68 h",100
same,RPE1 cell growth,"3 uM, 70 h",100
same,RPE1 cell growth,"3 uM, 72 h",100
same,RPE1 cell growth,"5 uM, 16 h, listed as KT1",30 and 46
same,RPE1 cell growth,"5 uM, 18 h, listed as KT1",31 and 50 and 32
same,RPE1 cell growth,"5 uM, 20 h, listed as KT1",33 and 54 and 35
same,RPE1 cell growth,"5 uM, 22 h, listed as KT1",35 and 55 and 36
same,RPE1 cell growth,"5 uM, 24 h, listed as KT1",36 and 62 and 39
same,RPE1 cell growth,"5 uM, 26 h, listed as KT1",39 and 63 and 41
same,RPE1 cell growth,"5 uM, 28 h, listed as KT1",43 and 68 and 44
same,RPE1 cell growth,"5 uM, 30 h, listed as KT1",43 and 73 and 49
same,RPE1 cell growth,"5 uM, 32 h, listed as KT1",48 and 77 and 51
same,RPE1 cell growth,"5 uM, 34 h, listed as KT1",52 and 80 and 55
same,RPE1 cell growth,"5 uM, 36 h, listed as KT1",56 and 85 and 59
same,RPE1 cell growth,"5 uM, 38 h, listed as KT1",57 and 89 and 62
same,RPE1 cell growth,"5 uM, 40 h, listed as KT1",62 and 90 and 66
same,RPE1 cell growth,"5 uM, 42 h, listed as KT1",65 and 93 and 68
same,RPE1 cell growth,"5 uM, 44 h, listed as KT1",69 and 96 and 74
same,RPE1 cell growth,"5 uM, 46 h, listed as KT1",72 and 98 and 79
same,RPE1 cell growth,"5 uM, 48 h, listed as KT1",77 and 99 and 81
same,RPE1 cell growth,"5 uM, 50 h, listed as KT1",80 and 99 and 86
same,RPE1 cell growth,"5 uM, 52 h, listed as KT1",84 and 100 and 89
same,RPE1 cell growth,"5 uM, 54 h, listed as KT1",88 and 100 and 93
same,RPE1 cell growth,"5 uM, 56 h, listed as KT1",90 and 100 and 95
same,RPE1 cell growth,"5 uM, 58 h, listed as KT1",92 and 100 and 97
same,RPE1 cell growth,"5 uM, 60 h, listed as KT1",95 and 100 and 98
same,RPE1 cell growth,"5 uM, 62 h, listed as KT1",96 and 100 and 99
same,RPE1 cell growth,"5 uM, 64 h, listed as KT1",97 and 100 and 99
same,RPE1 cell growth,"5 uM, 66 h, listed as KT1",98 and 100
same,RPE1 cell growth,"5 uM, 68 h, listed as KT1",99 and 100
same,RPE1 cell growth,"5 uM, 70 h, listed as KT1",99 and 100
same,RPE1 cell growth,"5 uM, 72 h",100
same,RPE1 cell growth,"10 uM, 14 h, listed as KT1",29 and 35 and 28
same,RPE1 cell growth,"10 uM, 16 h, listed as KT1",31 and 34 and 30
same,RPE1 cell growth,"10 uM, 18 h, listed as KT1",32 and 39
same,RPE1 cell growth,"10 uM, 20 h, listed as KT1",34 and 42 and 33
same,RPE1 cell growth,"10 uM, 22 h, listed as KT1",36 and 42 and 34
same,RPE1 cell growth,"10 uM, 24 h, listed as KT1",37 and 46 and 39
same,RPE1 cell growth,"10 uM, 26 h, listed as KT1",40 and 47
same,RPE1 cell growth,"10 uM, 28 h, listed as KT1",43 and 51 and 42
same,RPE1 cell growth,"10 uM, 30 h, listed as KT1",45 and 55
same,RPE1 cell growth,"10 uM, 32 h, listed as KT1",48 and 61 and 49
same,RPE1 cell growth,"10 uM, 34 h, listed as KT1",51 and 65 and 53
same,RPE1 cell growth,"10 uM, 36 h, listed as KT1",54 and 68 and 56
same,RPE1 cell growth,"10 uM, 38 h, listed as KT1",57 and 74 and 60
same,RPE1 cell growth,"10 uM, 40 h, listed as KT1",60 and 77 and 64
same,RPE1 cell growth,"10 uM, 42 h, listed as KT1",64 and 81 and 67
same,RPE1 cell growth,"10 uM, 44 h, listed as KT1",65 and 87 and 70
same,RPE1 cell growth,"10 uM, 46 h, listed as KT1",69 and 89 and 75
same,RPE1 cell growth,"10 uM, 48 h, listed as KT1",73 and 92 and 78
same,RPE1 cell growth,"10 uM, 50 h, listed as KT1",77 and 94 and 82
same,RPE1 cell growth,"10 uM, 52 h, listed as KT1",80 and 96 and 85
same,RPE1 cell growth,"10 uM, 54 h, listed as KT1",83 and 97 and 89
same,RPE1 cell growth,"10 uM, 56 h, listed as KT1",86 and 98 and 92
same,RPE1 cell growth,"10 uM, 58 h, listed as KT1",89 and 99 and 94
same,RPE1 cell growth,"10 uM, 60 h, listed as KT1",91 and 100 and 96
same,RPE1 cell growth,"10 uM, 62 h, listed as KT1",93 and 100 and 97
same,RPE1 cell growth,"10 uM, 64 h, listed as KT1",95 and 100 and 98
same,RPE1 cell growth,"10 uM, 66 h, listed as KT1",97 and 100 and 99
same,RPE1 cell growth,"10 uM, 68 h, listed as KT1",98 and 100
same,RPE1 cell growth,"10 uM, 70 h, listed as KT1",99 and 100
same,RPE1 cell growth,"10 uM, 72 h, listed as KT1",99 and 100
